Assay results reported in article PMC8615643.
These are yes or no findings as the source states them, for the method shown. Binding seen in cells or lysates may run through a third protein. Some binding calls cover weakened binding; strength is not graded here.

Protein sequences, listed by entry. Tags and fused reporters are not part of them. Residues count along the entry.
UniProt O00206, residues 657-839: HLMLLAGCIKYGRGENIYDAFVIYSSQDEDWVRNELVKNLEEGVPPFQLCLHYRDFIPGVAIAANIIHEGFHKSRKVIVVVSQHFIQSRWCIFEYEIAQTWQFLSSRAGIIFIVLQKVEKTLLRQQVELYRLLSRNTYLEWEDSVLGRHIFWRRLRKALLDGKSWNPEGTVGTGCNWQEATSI
UniProt Q86XR7: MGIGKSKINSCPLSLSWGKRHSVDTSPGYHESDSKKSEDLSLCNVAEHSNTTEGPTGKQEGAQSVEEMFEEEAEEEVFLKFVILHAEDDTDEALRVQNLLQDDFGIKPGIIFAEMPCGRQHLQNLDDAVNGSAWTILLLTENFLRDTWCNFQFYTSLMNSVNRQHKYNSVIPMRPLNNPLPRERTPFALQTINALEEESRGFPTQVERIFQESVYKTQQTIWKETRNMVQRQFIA
UniProt Q8IUC6: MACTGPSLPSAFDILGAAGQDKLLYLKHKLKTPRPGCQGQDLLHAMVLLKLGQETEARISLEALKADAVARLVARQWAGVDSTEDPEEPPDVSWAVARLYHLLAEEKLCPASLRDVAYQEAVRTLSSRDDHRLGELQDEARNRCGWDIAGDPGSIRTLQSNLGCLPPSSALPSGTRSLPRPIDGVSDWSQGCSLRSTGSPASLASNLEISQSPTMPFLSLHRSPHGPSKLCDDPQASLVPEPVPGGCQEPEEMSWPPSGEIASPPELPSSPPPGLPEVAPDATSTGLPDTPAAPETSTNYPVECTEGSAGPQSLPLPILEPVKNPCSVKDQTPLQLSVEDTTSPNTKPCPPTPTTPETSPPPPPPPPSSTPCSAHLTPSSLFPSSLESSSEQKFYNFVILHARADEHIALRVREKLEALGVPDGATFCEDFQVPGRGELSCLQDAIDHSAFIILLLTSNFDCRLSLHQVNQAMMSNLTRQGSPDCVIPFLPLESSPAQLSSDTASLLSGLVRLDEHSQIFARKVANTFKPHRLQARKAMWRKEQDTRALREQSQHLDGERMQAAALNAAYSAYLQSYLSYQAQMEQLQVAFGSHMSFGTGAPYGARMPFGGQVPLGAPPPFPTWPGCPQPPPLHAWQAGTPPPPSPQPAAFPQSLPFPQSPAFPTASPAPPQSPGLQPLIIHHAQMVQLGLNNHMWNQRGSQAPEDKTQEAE
UniProt Q99836: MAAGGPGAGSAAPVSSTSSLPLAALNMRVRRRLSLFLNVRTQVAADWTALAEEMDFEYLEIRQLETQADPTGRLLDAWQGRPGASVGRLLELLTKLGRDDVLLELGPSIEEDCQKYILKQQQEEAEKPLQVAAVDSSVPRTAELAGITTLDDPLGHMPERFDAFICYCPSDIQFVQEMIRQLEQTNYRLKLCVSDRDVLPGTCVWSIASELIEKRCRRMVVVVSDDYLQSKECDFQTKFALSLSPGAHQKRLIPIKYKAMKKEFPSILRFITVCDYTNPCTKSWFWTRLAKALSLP
UniProt P58753: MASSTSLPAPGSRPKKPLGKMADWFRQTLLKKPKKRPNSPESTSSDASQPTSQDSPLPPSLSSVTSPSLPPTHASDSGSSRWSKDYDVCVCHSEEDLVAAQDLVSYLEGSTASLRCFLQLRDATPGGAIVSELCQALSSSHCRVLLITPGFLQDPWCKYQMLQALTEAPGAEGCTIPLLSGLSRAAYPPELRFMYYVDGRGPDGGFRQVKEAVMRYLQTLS

What was measured:
GST-TLR4(TIR) (human) = GST-TLR4(TIR) (human) (UniProt O00206); experiment: pull-down; GST fusions as bait, co-expressed in YPH499 yeast with the two adaptors of a pair (mCherry-MyD88 plus TIRAP-GFP, or TRIF-mCherry plus TRAM-GFP); lysates in 10% glycerol, 50 mM Tris/HCl pH 7.5, 0.1% NP40, 150 mM NaCl, 5 mM EDTA; Glutathione Sepharose beads overnight at 4 °C; Western blot with anti-mCherry, anti-GFP, anti-GST
[1] = molecular target: myr-GST-TLR4(TIR) (human) (UniProt O00206); experiment: as above

| binding (GST-TLR4(TIR) (human)) | binding [1] | Substance |
| --- | --- | --- |
| binds | binds | TRAM-GFP (from UniProt Q86XR7 1-235) |
| binds | binds | TRIF-mCherry (from UniProt Q8IUC6 1-712) |
| binds | binds | mCherry-MyD88 (from UniProt Q99836 1-296) |
| binds | binds | TIRAP-GFP (from UniProt P58753 1-221) |
